# Assay results reported in the supplement of paper PMC5949888.
# Most values lie at the floor of the assay. Slopes are relative: functional sequences can read slightly below zero.
# Tested on: Saccharomyces cerevisiae PS128 hsf1 delta, HSF1(1-493) fusion
# Experiment: growth estimate (transactivation domain function in HSF1 fusion, heat-shock survival) (a.u. (slope of normalised read count over time)); higher = stronger growth at 37°C, i.e. more transactivation activity
# Conditions: library: random library
row,Substance,growth estimate
1,PHKKRPLGRRQ,-0.109
2,PHKTETKISQIVIARYHTII,< -0.25
3,PHL,< -0.25
4,PHLKHSDSSVNCPGALVPAA,< -0.25
5,PHLYRRS,< -0.25
6,PHNR,< -0.25
7,PHPERVRISIGVSPASRTVR,< -0.25
8,PHREESSLGET,< -0.25
9,PHRPGIIRYRSLCEAPPVAV,< -0.25
10,PHRPLSEILHHKAVLYFRWR,< -0.25
11,PHRYQRGAGGLTVLLLRLSE,< -0.25
12,PHSLLHNHPCVDLVGY,< -0.25
13,PHVGHTVIRLFRSGRHRASR,< -0.25
14,PHYWKRSEEHVRAAFEQCFI,< -0.25
15,PIAYC,-0.243
16,PICLAPAFDTVTETGYRQNA,< -0.25
17,PIDNACLFSSLCMTMKSLAA,-0.181
18,PIDNPAEARERRSRARAARS,< -0.25
19,PIDSDS,< -0.25
20,PIERFGDGLIRPATLKISFR,< -0.25
21,PIFNRTNLSNRLVRRSDGPR,< -0.25
22,PIH,< -0.25
23,PIIVRTWARSHGQEQGERCA,< -0.25
24,PILAA,< -0.25
25,PILDPVGNSHLAA,< -0.25

row,Substance,growth estimate
1,PILGGRASYGLRYLLFPNAR,< -0.25
2,PILQVDHVTAMIANVKRR,< -0.25
3,PILSAVVSRPVGTFCMRRCQ,< -0.25
4,PIMQLTERGSRLRMYAAVNE,< -0.25
5,PIPR,< -0.25
6,PIRALTELLNSRPPHSAS,< -0.25
7,PIRFTACNFIIKRCGELPGS,< -0.25
8,PISFHVNLSQTSLPPIAQFA,< -0.25
9,PISG,< -0.25
10,PITNAGTLSWKSRNIARVGR,< -0.25
11,PIVYTSRLASSKALRQQATR,< -0.25
12,PIWRHELCNLGGLLNLAMRS,< -0.25
13,PIYADCVG,-0.191
14,PKAGDCALSWPGSYSSWPKL,< -0.25
15,PKAILIPLFNV,< -0.25
16,PKGRVNLLQRRCIITVEHAP,< -0.25
17,PKLDRDSEP,< -0.25
18,PKPNNRPSPVIVWRGFLE,-0.243
19,PKQTWAPLGHRKKDTFSKAV,< -0.25
20,PKSPAVSVQSVDLPLTMDWL,< -0.25
21,PKSTAYMAGPVTCRGVL,< -0.25
22,PKTPNT,< -0.25
23,PKVTIGHLN,< -0.25
24,PLAMLLSVH,< -0.25
25,PLANRLKMSLEGSLARLLIH,< -0.25

row,Substance,growth estimate
1,PLATGEIRY,< -0.25
2,PLCPSVGKAFFVVRS,< -0.25
3,PLERRGT,< -0.25
4,PLFWLQPR,< -0.25
5,PLGQLLLHYWDAD,-0.249
6,PLGRKP,< -0.25
7,PLGYDYWPAQMWIKASHNSP,< -0.25
8,PLHDPFMRGISLDGVGEMYA,-0.224
9,PLHGL,< -0.25
10,PLHRGGMSLRRN,< -0.25
11,PLHRWAHLGKQSRVPIPTPV,< -0.25
12,PLHTIVVVCRTPLGWQAVSV,< -0.25
13,PLIFQGVRFCQSMVVSQRIE,< -0.25
14,PLIHFSDQGYGSVRSSAKFA,< -0.25
15,PLKPISLRTRKGMSLYFRTS,< -0.25
16,PLLCLCDV,< -0.25
17,PLLELGPPG,< -0.25
18,PLLGGRIGDLNGQRCDTHQT,< -0.25
19,PLLGSSSRTQVGPL,< -0.25
20,PLLLEEKAFRGDLTTD,< -0.25
21,PLLLSHISGSDRPSKRSVLT,< -0.25
22,PLMSRRHT,-0.243
23,PLNVSFRSGLPISGLLIGRS,< -0.25
24,PLPC,< -0.25
25,PLPGRLVQKERQHCRDPTAY,< -0.25

row,Substance,growth estimate
1,PLPQHVG,< -0.25
2,PLPSRKVKPFRALRVG,< -0.25
3,PLQILTTQLYSAQFHGLVRN,< -0.25
4,PLRGIRRVAGFLGLIPADIG,< -0.25
5,PLRGKRG,< -0.25
6,PLRLLLQGYCLATLGFSPAD,< -0.25
7,PLRSKAKTPDTYKLIAELQP,< -0.25
8,PLRSPLY,< -0.25
9,PLRTSPQ,< -0.25
10,PLS,< -0.25
11,PLSDLWTTRAGTRIVVTPPP,< -0.25
12,PLSEPPRPLS,< -0.25
13,PLSGKESRDCHLRVWLEGKE,< -0.25
14,PLSPPCCTSLLNENIEFWLL,48.3
15,PLSRESKLRYCPPRF,< -0.25
16,PLSTPAT,< -0.25
17,PLSWPGSVFGSGGLPVEGCR,< -0.25
18,PLVGRLDLCQLSLGYDSGSA,< -0.25
19,PLVSKFDIVAV,< -0.25
20,PLYICGASKCVSSQSTQVSK,< -0.25
21,PMA,< -0.25
22,PMADRCLTVPCRRGKY,< -0.25
23,PMAEV,< -0.25
24,PMAKVGAFLRRTTQPN,< -0.25
25,PMEELDAV,< -0.25

row,Substance,growth estimate
1,PMF,< -0.25
2,PMLG,< -0.25
3,PMLLEGVERDIVLVSDPVSR,< -0.25
4,PMRCSIE,< -0.25
5,PMTSSLVERLHCIRNGHRLL,< -0.25
6,PNATE,< -0.25
7,PNDRALTPLRCF,< -0.25
8,PNDWSRSA,< -0.25
9,PNEERYRVFMFRWWRAKRRR,< -0.25
10,PNESRRYRVRPAELPIFMIL,< -0.25
11,PNFAPRS,< -0.25
12,PNFPRMDRCIDVQLIDWNRR,< -0.25
13,PNGLKVYSKSSP,< -0.25
14,PNHAPRPY,< -0.25
15,PNIVSGYTPVRKAIKTGHEG,< -0.25
16,PNKY,< -0.25
17,PNLLPKVCGERWVWNKRQQN,-0.231
18,PNMTVTVVPMAGD,< -0.25
19,PNPICLGLCDGVIRAWLVET,< -0.25
20,PNPQSLLSSSIPYSARLLGV,< -0.25
21,PNRPMQLEQR,< -0.25
22,PNRSFVLKGLLIRVTGTLVL,< -0.25
23,PNTVDVLMNPRHPA,< -0.25
24,PNVRRASVRVI,< -0.25
25,PNWRSGIFNRTGGKKDTGFV,< -0.25

row,Substance,growth estimate
1,PPASHEIRSKALGA,< -0.25
2,PPDTHQCLATHPSSLVAQLL,< -0.25
3,PPEHHAPAFLFIA,< -0.25
4,PPESKGRPIPRGKEKSKLIK,< -0.25
5,PPFASRPRWRPGSSGRASLT,< -0.25
6,PPGLYEFFVPAGTKRATIAQ,< -0.25
7,PPITTK,< -0.25
8,PPLLNQ,< -0.25
9,PPRTVPGLLEYEE,< -0.25
10,PPSDRIESSV,< -0.25
11,PPSKLSFSLVFSQRLAFRGG,< -0.25
12,PPTAAAGLLRLSRFTNGLGL,< -0.25
13,PPTGSRGYKRI,< -0.25
14,PPTVGSDGIFGWVRAFRIPL,< -0.25
15,PPVAVHCVPGGLGRSRSGRS,< -0.25
16,PPVLMNPPRWL,< -0.25
17,PPVVTLS,< -0.25
18,PPYR,< -0.25
19,PQAATFGKDLLATKSLISLT,< -0.25
20,PQAPGRN,-0.206
21,PQEYLKRGSGRLVA,< -0.25

# Quoted at random: four records from the list, in no set order.
row,Substance,growth estimate
19,PLVSKFDIVAV,< -0.25
5,PHLYRRS,< -0.25
1,PLATGEIRY,< -0.25
23,PLNVSFRSGLPISGLLIGRS,< -0.25

# A second format for some results above.
row | Substance | growth estimate
12 | PPTAAAGLLRLSRFTNGLGL | < -0.25
13 | PPTGSRGYKRI | < -0.25
